Laboratory results: the supplement of paper PMC8960247

System: 621-102 (TSC2-deficient)
Assay: relative viability vs DMSO (fraction); higher = less cytotoxic
Settings: serum: 0.1% FBS, 72 h

Structure (SMILES)	relative viability (0.0128 nM)	relative viability (0.064 nM)	relative viability (0.32 nM)	relative viability (1.6 nM)	relative viability (8 nM)	relative viability (40 nM)	relative viability (200 nM)	relative viability (1000 nM)	relative viability (5000 nM)
CCC(=O)O[C@H]1CC[C@H]2[C@@H]3CCC4=CC(=O)CC[C@]4(C)[C@H]3CC[C@]12C [Testosterone propionate]	0.901	0.868	0.834	0.878	0.838	0.77	0.775	0.75	0.459
CN1CC[C@H](c2c(O)cc(O)c3c(=O)cc(-c4ccccc4Cl)oc23)[C@H](O)C1 [Flavopiridol (Alvocidib)]	0.619	0.719	0.603	0.589	0.604	0.365	0.0127	0.0118	0.0143
Cc1[nH]nc2ccc(-c3cncc(OC[C@@H](N)Cc4ccccc4)c3)cc12	0.849	0.867	0.866	0.807	0.739	0.73	0.562	0.132	0.0137
CCO[C@@H]1OC(=O)C[C@@H]1NC(=O)[C@@H]1CCCN1C(=O)[C@@H](NC(=O)c1ccc(N)c(Cl)c1)C(C)(C)C [VX-765]	0.708	0.763	0.877	0.805	0.654	0.615	0.603	0.68	0.563
COC(=O)Nc1ccc(-c2nc(N3CCOCC3)c3cnn(C4CCN(C(=O)OC)CC4)c3n2)cc1 [WYE-354]	1.22	1.49	1.49	0.972	0.499	0.62	1.01	1.21	0.703
CC(C)(Cc1ccc2ccccc2c1)NC[C@@H](O)COc1cccc(Cl)c1C#N [NPS-2143]	1.01	1.19	1.08	0.905	0.684	0.691	0.747	0.0769	0.0116
O=C(O)c1ccc2c(c1)nc(Nc1cccc(Cl)c1)c1ccncc12 [CX-4945 (Silmitasertib)]	0.999	0.928	0.811	0.808	0.877	0.852	0.893	0.827	0.375
CS(=O)(=O)c1ccc(C(=O)Nc2ccc(Cl)c(-c3ccccn3)c2)c(Cl)c1 [GDC-0449]	0.84	0.969	0.848	0.849	0.813	0.783	0.764	0.703	0.523
CCN[C@H]1C[C@H](C)S(=O)(=O)c2sc(S(N)(=O)=O)cc21 [Dorzolamide HCl]	0.886	0.861	0.879	0.802	0.884	0.773	0.758	0.7	0.713
CN1CCC[C@@H]1CCO[C@](C)(c1ccccc1)c1ccc(Cl)cc1 [Clemastine Fumarate]	0.717	0.539	0.572	0.681	0.595	0.609	0.582	0.656	0.671
C[C@]12CCC(=O)C(O)=C1CC[C@@H]1[C@@H]2CC[C@]2(C)C(=O)CC[C@@H]12 [Formestane]	1.05	0.971	0.972	0.315	0.122	0.176	0.126	0.0894	0.816
O=C(O)/C=C/c1ccc(Cn2ccnc2)cc1 [Ozagrel]	0.839	0.875	0.872	0.862	0.819	0.746	0.744	0.681	0.611
Cc1cc(Nc2cc(CN3CCOCC3)c3nc(C)c(Cc4ccc(Cl)cc4F)n3n2)n[nH]1	1.17	1.13	1.04	0.186	0.0414	0.0143	0.00702	0.00691	0.00558
Nc1ncn([C@H]2C[C@H](O)[C@@H](CO)O2)c(=O)n1 [Decitabine]	0.79	0.809	0.773	0.841	0.639	0.404	0.206	0.0717	0.0455
Nc1ccccc1NC(=O)c1ccc(CNC(=O)OCc2cccnc2)cc1 [MS-275]	0.634	0.689	0.759	0.791	0.674	0.709	0.727	0.605	0.221
OCCn1cc(-c2ccc3c(c2)CC/C3=N\O)c(-c2ccncc2)n1 [GDC-0879]	0.819	0.863	0.887	0.889	0.862	0.875	0.708	0.867	0.843
CNCc1ccc(-c2[nH]c3cc(F)cc4c3c2CCNC4=O)cc1	0.716	0.701	0.762	0.742	0.717	0.769	0.636	0.645	0.332
Nc1nc(F)nc2c1ncn2[C@@H]1O[C@H](COP(=O)(O)O)[C@@H](O)[C@@H]1O [Fludarabine Phosphate]	0.754	0.814	0.662	0.745	0.652	0.766	0.787	0.706	0.428
Oc1c2ccccc2c2c3c(cccc13)N=N2	0.987	0.999	0.99	1.07	1.03	0.94	1.04	0.992	0.565
Nc1ccn([C@@H]2O[C@H](CO)[C@@H](O)C2(F)F)c(=O)n1 [Gemcitabine HCl]	0.817	0.71	0.733	0.082	0.0166	0.0176	0.0209	0.0169	0.0166
CCN1CCN(C(=O)Cc2ccc(Nc3ncc(F)c(Nc4ccc(C(=O)Nc5ccccc5Cl)cc4)n3)cc2)CC1 [Aurora A Inhibitor I]	0.785	0.758	0.828	0.898	0.738	0.662	0.379	0.0643	0.00866
CC(C)N(CC[C@H](c1ccccc1)c1cc(CO)ccc1O)C(C)C [5-hydroxymethyl tolterodine]	1	0.935	0.903	0.857	0.824	0.85	0.821	0.781	0.767
COc1cc(Nc2ncc(F)c(Nc3ccc4c(n3)NC(=O)C(C)(C)O4)n2)cc(OC)c1OC [R406]	0.676	0.704	0.769	0.659	0.705	0.836	0.76	0.472	0.246

Single records, as listed above. Values in the order: relative viability (0.0128 nM)	relative viability (0.064 nM)	relative viability (0.32 nM)	relative viability (1.6 nM)	relative viability (8 nM)	relative viability (40 nM)	relative viability (200 nM)	relative viability (1000 nM)	relative viability (5000 nM)
`O=C(O)c1ccc2c(c1)nc(Nc1cccc(Cl)c1)c1ccncc12` [CX-4945 (Silmitasertib)] in the list: 0.999	0.928	0.811	0.808	0.877	0.852	0.893	0.827	0.375
`CC(C)(Cc1ccc2ccccc2c1)NC[C@@H](O)COc1cccc(Cl)c1C#N` [NPS-2143] in the list: 1.01	1.19	1.08	0.905	0.684	0.691	0.747	0.0769	0.0116

Where a name gives a salt, the structure may show the parent alone. This is a noisy data set.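 Viability of TSC2-lost, immortalized human renal angiomyolipoma cells bearing an empty vector was measured by luminescent ATP assay, normalized to each plate's vehicle-treated wells, in low-serum medium, where TSC2-rescued cells do not grow.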
